These results are taken from publication PMC5550850.

By UniProt entry, the sequences of proteins in these tests, tags left out.
UniProt P01106: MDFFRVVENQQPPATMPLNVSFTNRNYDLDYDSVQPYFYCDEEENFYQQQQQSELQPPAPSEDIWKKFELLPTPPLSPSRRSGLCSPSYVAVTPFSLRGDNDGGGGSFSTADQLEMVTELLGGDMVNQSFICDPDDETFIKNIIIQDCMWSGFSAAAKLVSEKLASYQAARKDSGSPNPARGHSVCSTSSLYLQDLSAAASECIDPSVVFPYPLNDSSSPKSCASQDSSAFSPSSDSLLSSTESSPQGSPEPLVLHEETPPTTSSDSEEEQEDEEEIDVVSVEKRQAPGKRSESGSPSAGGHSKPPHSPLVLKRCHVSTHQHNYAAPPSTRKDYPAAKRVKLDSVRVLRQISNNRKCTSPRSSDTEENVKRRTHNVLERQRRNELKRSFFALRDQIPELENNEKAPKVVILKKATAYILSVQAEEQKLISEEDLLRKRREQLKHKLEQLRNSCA
UniProt O15379: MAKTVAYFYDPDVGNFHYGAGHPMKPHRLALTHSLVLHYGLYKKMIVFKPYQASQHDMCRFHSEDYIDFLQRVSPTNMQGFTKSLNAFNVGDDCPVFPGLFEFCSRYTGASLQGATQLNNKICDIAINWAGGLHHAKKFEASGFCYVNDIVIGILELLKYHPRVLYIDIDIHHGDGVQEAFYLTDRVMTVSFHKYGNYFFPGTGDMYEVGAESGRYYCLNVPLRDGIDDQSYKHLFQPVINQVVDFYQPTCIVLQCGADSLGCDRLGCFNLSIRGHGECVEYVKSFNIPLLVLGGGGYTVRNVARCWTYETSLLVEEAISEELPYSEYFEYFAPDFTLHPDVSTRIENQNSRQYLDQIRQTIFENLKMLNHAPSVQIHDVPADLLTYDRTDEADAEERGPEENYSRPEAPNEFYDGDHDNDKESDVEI

The assay concerns the target c-myc (human (endogenous in CRC cell lines)) (UniProt P01106). The assay is described as follows: co-IP; co-immunoprecipitation in CRC cells; precipitating antibody, cell line and buffer not told.

Results are given in words; binding and its absence hold for the method and conditions named. In cells and extracts the contact can be indirect. Some binding calls cover weakened binding; strength is not graded here.

Regarding HDAC3 (from UniProt O15379 1-428), the binding result was “binds”.
